# Measurements as given in PubChem BioAssay AID504834 (National Center for Advancing Translational Sciences (NCATS), 2011).
# “And” between values parts separate entries of the source, which are not always exact repeats. Equal entries are not always repeated. The whole screen tested about 320,000 compounds, of which about 22,000 (6.9%) were called active. The shares of active, inactive and inconclusive entries below differ from those in the screen. Calls follow the shape of the dose curve; as a rule, active = well fitted inhibition curve with a large enough effect; inconclusive = small, poorly fitted or top-dose-only effect, or another doubt; inactive = no such curve, though single readings can be large or run the other way. Potencies of inconclusive entries are doubtful fits and often do not repeat.
# Assay: Primary qHTS for delayed death inhibitors of the malarial parasite plastid, 96 hour incubation
# Conditions: P. falciparum luciferase reporter growth; series mostly up to 28.7 µM
# How it was run: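 Two-generation exposure (96 h) targets delayed-death phenotype. Reporter parasites carrying integrated firefly luciferase, in red cells at 2% hematocrit and 0.05% parasitemia final, kept at 37 C, 5% CO2; luminescence loss indicates inhibition.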
# % is scaled to controls: 0 for no effect and ±100 for the full control effect; potency is read from the fitted curve at half-maximal effect.
SMILES,Potency,"activity change, negative = inhibition"
CCC(=O)Nc1ccc(/C(C)=N/NC(=O)c2c(Br)c(C)nn2C)cc1,"inconclusive: 18.5 µM [inhibitor, single point]",–
COc1ccc(/C=C/C(=O)N(C(C)C)C(C)C)cc1Br,"inconclusive: 18.5 µM [inhibitor, single point]",–
CCc1cc2c(=O)n(Cc3ccccc3)c(SC3CCOC3=O)nc2s1 (stereo not given),inactive,–
COC(=O)c1cc(NC(=O)c2cc(C)oc2C)cc(C(=O)OC)c1,"inconclusive: 18.5 µM [inhibitor, single point]",–
Cc1c(C(=O)Nc2cnccn2)oc2ccccc12,"inconclusive: 13.1 µM [inhibitor, partial curve, poor fit]",–
Cc1ccccc1N1CCN(C(=O)[C@@H]2CCCN2C2=NS(=O)(=O)c3ccccc32)CC1,"inconclusive: 11.7 µM [inhibitor, single point]",–
CCN1CCN(CCCOc2ccc(Cl)cc2Br)CC1,"inconclusive: 18.5 µM [inhibitor, single point]",–
Cc1cccn2cc(CCNS(=O)(=O)c3cccc([N+](=O)[O-])c3)nc12,inactive,–
CCCCSc1nnc2[nH]c(=O)cc(N)n12,"inconclusive: 11.7 µM [inhibitor, single point]",–
CC1CC1C(=O)Nc1nc(-c2ccccn2)cs1 (stereo not given),active: 3.7 µM,–
Cc1nn(-c2ccc(N3CCOCC3)nn2)c(C)c1CCC(=O)Nc1ccccc1,inactive,–
Cc1c(N=Nc2c(O)n(Cc3ccccc3)c(=O)[nH]c2=O)c(=O)n(-c2ccccc2)n1C,"inconclusive: 18.5 µM [inhibitor, single point]",–
Cc1ccc(NC(=O)c2cc(C)nc3ccccc23)cc1,"inconclusive: 10.4 µM [inhibitor, single point]",–
CCN(CC)S(=O)(=O)c1cc(NC(=O)C(C)OC(=O)c2[nH]c(C)c(C(C)=O)c2C)ccc1C (stereo not given),"inconclusive: 0.738 µM [inhibitor, full curve]",–
COc1nc(Cc2ccc(Cl)cc2)nc2ccccc12,"inconclusive: 18.5 µM [inhibitor, single point]",–
CCN(Cc1cc2cc(C)ccc2[nH]c1=O)S(=O)(=O)c1ccccc1,"inconclusive: 9.28 µM [inhibitor, single point]",–
O=C(Nc1ccc(C(=O)N2CCCCC2)cc1)c1ccc(Br)cc1,active: 4.15 µM,–
COc1ccc(-c2csc(NC(=O)CN3C(=O)CCC3=O)n2)cc1,inactive,–
O=C1NC(=Nc2cccc(Cl)c2)SC1Cc1cccc(Cl)c1Cl (stereo not given),active: 10.4 µM,–
CCOC(=O)C1=C(N)N2C(=O)C(C)SC2=C(C(=O)OC)C1c1cccc(OC)c1 (stereo not given),inactive,–
CCCCc1nnc(NC(=O)c2nc3nccc(C)n3n2)s1,"inconclusive: 18.5 µM [inhibitor, single point]",–
CC(=O)Nc1ccc(Sc2ncnc3scc(-c4ccccc4)c23)cc1,"inconclusive: 2.94 µM [inhibitor, single point]",–
O=C(c1ccc2c3c(cccc13)CC2)C1CCCN(CC2CC2)C1 (stereo not given),"inconclusive: 11.7 µM [inhibitor, single point]",–
CC12CCC(C/C1=N/O)C2(C)CBr (stereo not given),inactive,–

# Full records, looked up by structure. Order of values: Potency	activity change, negative = inhibition
# COc1ccc(-c2csc(NC(=O)CN3C(=O)CCC3=O)n2)cc1 reads inactive	–
# CCN1CCN(CCCOc2ccc(Cl)cc2Br)CC1 reads inconclusive: 18.5 µM [inhibitor, single point]	–

# Continuation.

SMILES,Potency,"activity change, negative = inhibition"
CNC(=S)N/N=C/c1cn(Cc2ccc(C)cc2)c2ccccc12,"inconclusive: 18.5 µM [inhibitor, single point]",–
CCn1nc(C)cc1C(=O)N1CCCC(N(C)CCc2ccc(OC)c(OC)c2)C1 (stereo not given),"inconclusive: 18.5 µM [inhibitor, single point]",–
COc1ccc(CCC(=O)Nc2cc(Cl)ccc2OC)cc1,"inconclusive: 9.28 µM [inhibitor, single point]",–
CC(=O)c1c(C)[nH]c(C(=O)CSc2nnc(C)s2)c1C,inactive,–
CCCCNC(=S)NNC(=O)c1ccc(Br)o1,inactive,–
O=C(CCC(=O)c1ccc(Cl)cc1)OCC(=O)c1ccccc1,"inconclusive: 14.7 µM [inhibitor, single point]",–
CCCn1c(=O)c(C(=O)NNC(=O)c2cccc([N+](=O)[O-])c2)c(O)c2ccccc21,inactive,–
Cc1nnc(CN(C)C(=O)CC2C(=O)NCCN2Cc2ccccc2C)o1 (stereo not given),inactive,–
Cc1ccc(NC(=O)CSc2nncn2N)cc1C,"inconclusive: 9.28 µM [inhibitor, single point]",–
Cc1ccccc1NC(=O)NCCN1CC1,"inconclusive: 0.0029 µM [inhibitor, full curve, poor fit]",–
CCn1c(CNC(=O)COc2ccc(C(C)C)cc2)nnc1SCC(=O)Nc1ccccc1,"inconclusive: 11.7 µM [inhibitor, partial curve, poor fit]",–
O=S(=O)(c1ccc(Cl)cc1)N1CCC2(CC1)OCCO2,"inconclusive: 11.7 µM [inhibitor, partial curve]",–
COc1ccccc1S(=O)(=O)Cc1ccc(C(=O)N2CCN(c3ccccn3)CC2)o1,"inconclusive: 11.7 µM [inhibitor, single point]",–
COc1ccc(/C=C/C(=O)O/N=C(\N)c2ccccc2)cc1OC,"inconclusive: 14.7 µM [inhibitor, single point]",–
Cc1onc(-c2c(F)cccc2Cl)c1C(=O)OCC(=O)Nc1c(C)n(C)n(-c2ccccc2)c1=O,"inconclusive: 10.4 µM [inhibitor, single point]",–
O=C(Nc1ccccc1)N1CCSc2cc(Cl)ccc21,"inconclusive: 10.4 µM [inhibitor, partial curve, poor fit]",–
CC(=O)Oc1cccc(/C=c2\sc3nc(-c4ccco4)nn3c2=O)c1,"inconclusive: 0.415 µM [inhibitor, full curve, poor fit]",–
Cc1ccc(Nc2c(-c3ccc(N4CCOCC4)cc3)nc3ncccn23)cc1,"inconclusive: 18.5 µM [inhibitor, single point]",–
Cc1ccc(C2(c3noc(CN4CCC(c5ccncc5)CC4)n3)CCCC2)cc1,active: 11.7 µM,–
CC(C)N1C(=O)/C(=C\c2nc3ccccc3c(=O)[nH]2)c2ccccc21,"inconclusive: 11.7 µM [inhibitor, single point]",–
COc1cccc(/C=C(\C#N)C(=O)NC2CCS(=O)(=O)C2)c1 (stereo not given),inactive,–
COC(=O)c1sc(NC(=O)c2c(C)noc2C)nc1C,"inconclusive: 5.22 µM [inhibitor, partial curve]",–
O=C(N/N=C/c1ccc(OC(F)F)cc1OC(F)F)c1cccc(S(=O)(=O)N2CCOCC2)c1,inactive,–
Cc1cccc(NC(=S)NC2CC3C=CC2C3)c1 (stereo not given),"inconclusive: 13.1 µM [inhibitor, single point]",–

# Some values from above:
# Cc1ccc(C2(c3noc(CN4CCC(c5ccncc5)CC4)n3)CCCC2)cc1 – Potency: active: 11.7 µM
# O=S(=O)(c1ccc(Cl)cc1)N1CCC2(CC1)OCCO2 – Potency: inconclusive: 11.7 µM [inhibitor, partial curve]

# 2 compounds drawn at random from those above, as already listed:
SMILES,Potency,"activity change, negative = inhibition"
Cc1ccc(Nc2c(-c3ccc(N4CCOCC4)cc3)nc3ncccn23)cc1,"inconclusive: 18.5 µM [inhibitor, single point]",–
Cc1ccccc1N1CCN(C(=O)[C@@H]2CCCN2C2=NS(=O)(=O)c3ccccc32)CC1,"inconclusive: 11.7 µM [inhibitor, single point]",–

# Later entries

SMILES,Potency,"activity change, negative = inhibition"
Cc1ccc(S(=O)(=O)N(C)C)cc1NC(=O)COC(=O)C1CC(=O)N(c2ccc3c(c2)OCCO3)C1 (stereo not given),inactive,–
CCN1CCN(c2cc3c(cc2F)c(=O)c(C(=O)O)cn3C2CC2)CC1,active: 9.53 µM and active: 8.28 µM,–
CCN(CC)c1ccc(N=Cc2c(C)[nH]c3ccccc23)cc1,active: 4.65 µM,–
O=C(c1ccc2c(c1)OCO2)N1CCN(S(=O)(=O)c2ccc(Br)cc2Cl)CC1,"inconclusive: 11.7 µM [inhibitor, single point]",–
COC(=O)C(CCCCN1C(=O)C2C3C=CC(C3)C2C1=O)N1C(=O)C2C3C=CC(C3)C2C1=O (stereo not given),"inconclusive: 10.4 µM [inhibitor, single point]",–
COc1ccc(NC(=O)C(NC(=O)Cc2cccs2)c2ccc(C)cc2)cc1 (stereo not given),inactive,–
CC(C)Oc1ccc(S(=O)(=O)N2CCCCC2)cc1NC(=O)C1CCC1,"inconclusive: 1.65 µM [inhibitor, partial curve, poor fit]",–
C[n+]1ccccc1N1CCN(c2ccccc2Cl)CC1,"inconclusive: 0.415 µM [inhibitor, full curve, poor fit]",–
COc1ccccc1CNC(=O)CSc1nc2ccccc2c(=O)n1CCCN1CCOCC1,inactive,–
Cc1ccc(C(=O)Nc2ccc3c(c2)OCO3)cc1NC(=O)c1ccco1,inactive,–
O=C(CSc1nc2ccccc2n1CC(=O)NCc1ccccc1)NCc1ccco1,–,inactive: 4.52% [at 5.75 µM]
O=C(O)c1ccc(S(=O)(=O)Nc2cccc(CP(=O)(c3ccccc3)c3ccccc3)c2)cc1,"inconclusive: 9.28 µM [inhibitor, partial curve]",–
CCn1c(SCC(=O)Nc2ccc(OC)cc2)nc2c(c1=O)SCC2,"inconclusive: 14.7 µM [inhibitor, partial curve, poor fit]",–
O=C(C[n+]1ccn(CCCNP2(=O)C=C(c3ccccc3)OC(c3ccccc3)=C2)c1)c1ccccc1,"inconclusive: 0.522 µM [inhibitor, full curve, poor fit]",–
Cc1ccc(NC(NC(=O)c2ccccn2)C(Cl)(Cl)Cl)cc1 (stereo not given),"inconclusive: 20.8 µM [inhibitor, single point]",–
CCc1nnc(NS(=O)(=O)c2ccc(N/C=C\C(=O)c3cccc4ccccc34)cc2)s1,active: 9.28 µM,–
COc1cc(C(=O)Nc2ccc3c(c2)OCO3)ccc1OCc1c(C)noc1C,"inconclusive: 18.5 µM [inhibitor, single point]",–
CN(C)C(=O)COC(=O)c1cc(Cl)cc(Cl)c1N,inactive,–
CC(=O)Nc1ccc(S(=O)(=O)NCC(=O)OCC(=O)NCc2ccco2)cc1,inactive,–
CCNc1ccc(C(=O)NN=C2CCCC2)cc1[N+](=O)[O-],"inconclusive: 5.22 µM [inhibitor, partial curve, poor fit]",–
COc1cccc(NC(=O)CSc2nc3ccccc3nc2N2CCOCC2)c1,"inconclusive: 13.1 µM [inhibitor, single point]",–
COc1cccc(/C=N/NC(=O)CSc2ccccc2C)c1O,inactive,–
